Measured values published in PubChem BioAssay AID504375 (National Center for Advancing Translational Sciences (NCATS), 2011).
In all, about 1,600 compounds went through this assay and about 25 (2%) were called active. Roughly 7% stayed inconclusive and do not appear here. Calls follow the shape of the dose curve; as a rule, active = well fitted inhibition curve with a large enough effect; inconclusive = small, poorly fitted or top-dose-only effect, or effect the other way; inactive = no such curve, though single readings can be large or run the other way. Some of the results follow.

The chains behind the UniProt entries cited, without tags or fusion partners.
UniProt Q01196, whole entry, looked up: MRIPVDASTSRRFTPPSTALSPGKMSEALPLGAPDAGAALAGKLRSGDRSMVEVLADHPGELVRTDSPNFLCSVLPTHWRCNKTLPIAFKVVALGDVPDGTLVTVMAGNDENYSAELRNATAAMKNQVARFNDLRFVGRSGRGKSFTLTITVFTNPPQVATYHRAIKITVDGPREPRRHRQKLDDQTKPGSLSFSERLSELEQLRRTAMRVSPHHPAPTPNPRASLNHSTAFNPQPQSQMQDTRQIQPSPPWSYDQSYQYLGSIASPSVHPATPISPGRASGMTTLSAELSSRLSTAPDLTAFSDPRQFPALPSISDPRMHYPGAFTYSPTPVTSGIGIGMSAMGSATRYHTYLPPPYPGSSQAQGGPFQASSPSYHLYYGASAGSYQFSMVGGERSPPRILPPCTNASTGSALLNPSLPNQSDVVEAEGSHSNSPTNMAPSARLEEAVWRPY
UniProt Q13951, whole entry, looked up: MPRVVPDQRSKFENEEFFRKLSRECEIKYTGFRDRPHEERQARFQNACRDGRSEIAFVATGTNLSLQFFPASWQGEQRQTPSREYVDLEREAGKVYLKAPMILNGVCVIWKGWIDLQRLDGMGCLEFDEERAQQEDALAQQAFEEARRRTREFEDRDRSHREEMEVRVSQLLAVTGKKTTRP

target: Runt-related transcription factor 1 (Homo sapiens) + Core-binding factor subunit beta (Homo sapiens) (UniProt Q01196+Q13951); assay: qHTS Assay for Compounds Blocking the Interaction Between CBF-beta and RUNX1 for the Treatment of Acute Myeloid Leukemia: Hit Validation with Orthogonal Assay; details: CBFbeta-RUNX1 binding orthogonal assay, biochemical; series mostly up to 41 µM; activity change, negative = inhibition: at the top concentration
How it was run: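 Compound was incubated for 30 min with biotin-RUNX1 plus His6-CBF-beta at 30 nM per protein. Binding was then detected by TR-FRET between terbium anti-His antibody and 5 nM streptavidin-XL665, read after 90 min, in the same buffer as the AlphaScreen primary assay.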
% is scaled to controls: 0 for no effect and ±100 for the full control effect.

Compound	activity change, negative = inhibition
Clc1nc(Oc2ccccc2)nc(-c2cn(-c3ccccc3)c3ccccc23)n1	inactive: -9%
COc1ccc(CN2CCOC2=O)cc1OC	inactive: -2.74%
Cc1cc(NC(=O)CN2CCOCC2)n(-c2ccccc2)n1	inactive: 4.36%
Cc1ccc(SC2=C(Sc3ccc(C)cc3)C(=O)c3ccccc3C2=O)cc1	inactive: 26.3%
O=C(CN1CCCc2ccccc21)N1CCc2ccccc21	inactive: 18.9%
CC(C)(C)c1ccc(/C=N/N2CCN(c3ccccn3)CC2)cc1	inactive: 1.59%
c1ccc(-c2ccc(-c3nccc4ccccc34)[nH]2)cc1	inactive: 18.1%
O=C(O)CCC1(c2ccccc2)NC(=O)NC1=O (stereo not given)	inactive: -2.89%
COC(=O)CC1C(=O)NCCN1C(=S)Nc1ccc(F)cc1 (stereo not given)	inactive: -9.22%
Cc1cccc(-c2n[nH]c(=S)n2/N=C/c2ccco2)c1	inactive: -0.0367%
COc1ccccc1NC(=S)NCC1CCC(CNC(=S)Nc2ccccc2OC)CC1 (stereo not given)	inactive: 1.97%
CC(C)CCNc1nc(N)c([N+](=O)[O-])c(NCCO)n1	inactive: 18%
COc1ccccc1N1C(=O)CC(Sc2ccccc2N)C1=O (stereo not given)	inactive: 7.98%
CCCC1C2C(=O)N(c3cccc(C)c3)C(=O)C2ON1c1ccccc1 (stereo not given)	inactive: -2.89%
Cc1cnc(NS(=O)(=O)c2ccccc2)c(Br)c1	inactive: 2.42%
CC(C)(C)C(=O)Nc1nc(NC(=O)C(C)(C)C)nc(-c2ccccc2Cl)n1	inactive: -5.75%
Cc1oc(S(=O)(=O)N2CCCCC2)cc1NC(=O)Nc1ccc(F)cc1	inactive: -11.6%
Cc1[nH]c(N=Nc2ccccc2)nc1N=Nc1ccccc1	inactive: 19.5%
CCc1sc(N)nc1-c1ccccc1	inactive: 9.08% [at 22.1 µM]
CCCc1ccc(OCc2ccccc2)c2c(=O)cc(C(=O)OCC)oc12	inactive: 2.53%
CN(C)NC(=S)NC1CCS(=O)(=O)C1 (stereo not given)	inactive: -3.06%
O=c1ccn(CCCBr)c(=O)[nH]1	inactive: 8.4%
CCCN(c1ccc(C)cc1)c1nc(=O)c2cccnc2s1	inactive: 3.24%
Cc1cc(NC(=O)CSc2nc3ccccc3[nH]2)n(-c2ccccc2)n1	inactive: 1.11%

Compound	activity change, negative = inhibition
Cc1cc(C)nc(S/C=C/C(=O)c2ccccc2F)n1	inactive: 12%
CCOC(=O)COc1ccc2c(=O)cc(-c3ccccc3)oc2c1	inactive: 5.15%
O=C(NCCc1ccc(Cl)cc1)Nc1ccc(Cl)cc1	inactive: 3.98%
O=C(CCl)NC1(C(F)(F)F)C(=O)Nc2c1c(=O)[nH]c(=O)n2-c1ccccc1 (stereo not given)	inactive: -7.72%
c1ccc(CSc2nc3ncncc3[nH]2)cc1	inactive: -4.69%
C=CCn1c(-c2sc3nc(C)cc(C)c3c2N)n[nH]c1=S	inactive: 34.3%
O=C(/C=C/c1cn(CC(O)CN2CCOCC2)c2ccccc12)c1cccs1 (stereo not given)	inactive: 4.2%
COc1cc(/C=N\NC(=O)CNC(=O)C(c2ccccc2)c2ccccc2)ccc1O	inactive: 11.9%
Cc1c([N+](=O)[O-])c(C/C=N/O)nn1C	inactive: 17.1%
CCCN(CCC)c1ccc(/C=C/c2ccc3cc(OCC)ccc3n2)cc1	inactive: -0.232%
N#Cc1c(Cl)cccc1N1CCC(C(N)=O)CC1	inactive: -3.61%
Cn1c(=O)c([N+](=O)[O-])c(NCC2CCCO2)c2ccccc21 (stereo not given)	inactive: 28.8%
CC(C)CC(=O)NC(=S)Nc1ccc(CN2CCOCC2)cc1	inactive: 5.93%
CC1Cc2cc(/C=C3/SC(=S)N(C)C3=O)ccc2O1 (stereo not given)	inactive: 12%
Cc1sc(NC(=O)CN2CCOCC2)c(C#N)c1C	inactive: -16.3%
Cc1ccc(N2CC(c3nc4ccccc4n3C)CC2=O)cc1 (stereo not given)	inactive: 16.9%
COc1ccc(Oc2ncccc2[N+](=O)[O-])cc1	inactive: 49.1%
COC(=O)c1ccc(OC)c(OC)c1Cl	inactive: 5.96%
Cc1ccc(N/N=C(\C#N)C(=N)N2CCCCC2)cc1	inactive: 59.2%
Cc1cc(O)c(C(C)C)cc1N=Cc1ccccc1O	inactive: 5.04%
COC(=O)c1sccc1NC(=S)Nc1ccc(C)cc1	inactive: -22.9%
Cc1ccccc1C1NC(c2ccccc2C)C([N+](=O)[O-])C(C)(C)C1[N+](=O)[O-] (stereo not given)	inactive: 15%
CC(C)OP(=O)(c1ccc(N(C)C)cc1)C(O)c1cccnc1 (stereo not given)	inactive: 1.41%
CSCCC(NS(=O)(=O)/C=C/c1ccccc1)C(=O)NCCc1ccc(S(N)(=O)=O)cc1 (stereo not given)	inactive: 4.05%

Compound	activity change, negative = inhibition
NC1=NC(=Nc2ccc(S(N)(=O)=O)cc2)c2ccccc21	inactive: 6.34%
CCCOc1ccc(C(=O)c2ccccc2C(=O)O)cc1OCCC	inactive: 1.6%
CCN1CCN(S(=O)(=O)c2cc(C(=O)O)ccc2Cl)CC1	inactive: -5.48%
O=C(O)CCC(=O)N1CCN(c2ncccn2)CC1	inactive: -8.75%
COc1ccc(/C=N/NC(=S)Nc2cc(C(F)(F)F)ccc2Cl)cc1	inactive: 3.19%
Cc1cc(C)[n+]2[nH]c(N)c(N=Nc3ccccc3)c2n1	inactive: 9.93%
CCCNc1cc(=S)nc(N)[nH]1	inactive: -4.33%
CC(/C=N/NC(=O)c1cc(-c2cccn2C)n[nH]1)=C\c1ccccc1	inactive: -6.57%
CC(=O)Nc1ccc(NS(=O)(=O)c2ccc(C)cc2)cc1[N+](=O)[O-]	inactive: 31.5%
CC1c2ccsc2CCN1S(=O)(=O)c1cccs1 (stereo not given)	inactive: -8.33%
OCc1ncc(-c2ccccc2)s1	inactive: -10.5%
CC(=O)Cc1nnn(-c2cc(C)on2)n1	inactive: 0.306%
O=C(CSc1ccc(-c2ccccn2)nn1)NCc1ccccc1	inactive: -3.74% [at 82.4 µM]
Cc1c(Cl)ccc2c(C(=O)O)cc(-c3ccccc3)nc12	inactive: -3.82%
COc1ccc(/C=N/NC(=O)Cn2ccnc2C)cc1OC	inactive: -3.54%
Cc1nn(C)c(Sc2ccccn2)c1[N+](=O)[O-]	inactive: 17.8%
CCOc1ccc(Nc2nc(N)nc(CCl)n2)cc1	inactive: -7.88%
FC(F)(F)c1cccc(-n2c(Cn3nnc4ccccc43)n[nH]c2=S)c1	inactive: -16.8%
Cc1ccc(S(=O)(=O)NC(=O)Nc2ccc(OC(F)F)cc2)cc1	inactive: 9.37%
COc1ccc(/C=N/NC(=O)c2ccc(Br)cc2)cc1CN1CCOCC1	inactive: 15.4%
O=S(=O)(c1ccc(Cl)cc1)N1CCCN(c2ccc(C(F)(F)F)cn2)CC1	inactive: -10.5%
Cc1cc(C)n2cnnc2n1	inactive: 10.9%
C/C(=N\Nc1ccc(C#N)cc1[N+](=O)[O-])c1ccc(O)cc1	inactive: 16.9%
O=[N+]([O-])c1c(C(Cl)Cl)nn(-c2ccccc2)c1N1CCCC1	inactive: 0.555% [at 22.1 µM]

Of the compounds above, 7 have an aryl thioether with sulfur outside any ring.
Compound	activity change, negative = inhibition
Cc1ccc(SC2=C(Sc3ccc(C)cc3)C(=O)c3ccccc3C2=O)cc1	inactive: 26.3%
COc1ccccc1N1C(=O)CC(Sc2ccccc2N)C1=O (stereo not given)	inactive: 7.98%
Cc1cc(NC(=O)CSc2nc3ccccc3[nH]2)n(-c2ccccc2)n1	inactive: 1.11%
Cc1cc(C)nc(S/C=C/C(=O)c2ccccc2F)n1	inactive: 12%
c1ccc(CSc2nc3ncncc3[nH]2)cc1	inactive: -4.69%
O=C(CSc1ccc(-c2ccccn2)nn1)NCc1ccccc1	inactive: -3.74% [at 82.4 µM]
Cc1nn(C)c(Sc2ccccn2)c1[N+](=O)[O-]	inactive: 17.8%

Later entries.

Compound	activity change, negative = inhibition
Clc1ccccc1-c1nnc2n1CCCCC2	inactive: -6.94%
COC(=O)c1ccc(/C=N/NC(=O)C(=O)NCC2CCCO2)cc1 (stereo not given)	inactive: 1.71%
COC(=O)[C@H](CC(C)C)NC(=O)N1CCCCC1C (stereo not given in full)	inactive: -1.26%
Oc1ccc(NC(=S)Nc2ccccc2)cc1	inactive: 10.7%
COc1ccc(-c2c(NC(=O)c3ccco3)n(-c3ccccc3)nc(C)c2=O)cc1	inactive: 16.9%
NNC(=O)c1ccc(COc2ccc([N+](=O)[O-])cc2)o1	inactive: 21.3%
CC(=O)c1ccc(-n2ccnc2)cc1	inactive: -0.967%
CC(C)c1ccc(Nc2c([N+](=O)[O-])c(=O)n(C)c3ccccc23)cc1	inactive: 37.9%
CCOC(=O)/C(=N/Nc1ccc(OC)cc1)N1CCCc2ccccc21	inactive: -4.32%
CCCCCc1ccc(S(=O)(=O)Nc2cc(C)ccn2)cc1	inactive: -8.73%
CC(=O)c1ccc(N2CCc3ccccc3C2)c([N+](=O)[O-])c1	inactive: 32.5%
Cc1cc(=O)oc(C)c1C(=O)Nc1ccccc1F	inactive: -5.73%
Cc1cc(C)cc(NC(=O)NCC(O)COc2ccc([N+](=O)[O-])cc2)c1 (stereo not given)	inactive: 7.89%
Cc1onc(-c2c(F)cccc2Cl)c1C(=O)N=C(N)N1CC(C)OC(C)C1 (stereo not given)	inactive: 4.75%
CN(C)/C=C(/C(=O)c1ccc(Cl)c(Cl)c1)c1nnnn1-c1ccccc1	inactive: -20.4%
Nc1ccccc1C(=O)NNC1=C(C(=O)C(F)(F)F)CCC1	inactive: -7.41%
CCOC(=O)Cc1csc(NC(=O)Cc2ccc(Br)cc2)n1	inactive: -7.4%
N/C(Cc1nc2ccccc2s1)=N\O	inactive: 12.3%
Cc1c(-c2ccccc2)[n+](=O)c(-c2ccc(Br)cc2)c(C)n1[O-]	inactive: 26.5%
COc1cc(NC(=S)N(C)C)c(OC)cc1Cl	inactive: 6.15%
CC1=C(C(=O)c2ccccc2)C(c2ccc(O)cc2)NC(=S)N1 (stereo not given)	inactive: 0.624%
Clc1cc(Cl)cc(Nc2ncnc(-n3cccc3)n2)c1	inactive: -2.8%
O=C(CCCCCCCCCCC(=O)NCc1cccnc1)NCc1cccnc1	inactive: 1.7%
C1=Cc2ccccc2Nc2ccccc21	inactive: 15.4%

Compound	activity change, negative = inhibition
CC(=O)NCC1(O)CCCC(C)C1 (stereo not given)	inactive: 6.06%
CSc1ccc2c(c1)C(N1CCN(C)CC1)Cc1ccccc1S2 (stereo not given)	inactive: -1.54%
O=C(Nc1ccc(F)cc1)C(=O)c1c(O)[nH]c2ccc([N+](=O)[O-])cc12	inactive: 11.1%
CC1=[N+](C)N(c2ccccc2)C(=O)C1N=C/C=C/c1ccccc1 (stereo not given)	inactive: -2.94%
O=C(c1ccccc1Cl)N1CCSCC1	inactive: -5.33%
Cc1csc2c(N3CCC(C(=O)O)CC3)ncnc12	inactive: 0.416%
CCOC(=O)c1c[nH]n2c(=O)cc(C)nc12	inactive: 5.6%
C=COC(=O)c1sc2nc(C)cc(C)c2c1N	inactive: 29.3%
Cc1onc(-c2ccccc2)c1NC(=O)N(Cc1ccccc1)C(C)C	inactive: -14.8%
O=C(CN1CCCC1)OCCCC1CCCCC1	inactive: -5.66%
COC(=O)c1sccc1NC(=O)CC1C(=O)NCCN1C(=O)c1ccc(F)cc1 (stereo not given)	inactive: 9.57%
COc1ccc(C(O)Cn2cc([N+](=O)[O-])nc2C)cc1 (stereo not given)	inactive: 13.5%
Cc1ccc(C2N=C(N)Nc3nc(=O)c4ccccc4n32)cc1 (stereo not given)	inactive: -20.6%
C=CCn1c(=O)c2ccccc2n2nnc(C(=O)OCC)c12	inactive: 8.09%
O=C(O)c1ccc(N/N=C/C2=C(N3CCOCC3)C(=C\c3ccccc3)/CC2)cc1	inactive: -23.6%
COc1ccc(CCNC(=S)N(C)C)cc1OC	inactive: 4.11%
NC(=O)C1CCN(C(=O)Nc2csc3ccccc23)CC1	inactive: 2.19%
COc1cccc(NC(=O)C2CC(=O)N/C(=N/NC(=O)c3ccc(C)cc3)S2)c1 (stereo not given)	inactive: 15.3%
COc1ccc(/C(C#N)=C/c2ccccn2)cc1	inactive: 15.8%
CCc1nc2oc3ccccc3c(=O)c2c(=O)n1-c1ccc(C)cc1	inactive: -12.6%
CC(C)(C)OC(=O)N1CCCN(C(=O)Nc2ccc(C(F)(F)F)cc2)CC1	inactive: 9.91%
CCOC(=O)Nc1ccc(C(=O)/C=C/c2ccccc2)cc1	inactive: -2.59%
CC(C)CC(=O)N=C1SC2CS(=O)(=O)CC2N1Cc1ccccc1Cl (stereo not given)	inactive: 11.2%
Cn1c(N)c(C(=O)Nc2ccc(-c3ccccc3)cc2)sc1=S	inactive: -9.4%
